From doi:10.1101/306316

The chains behind the UniProt entries cited, without tags or fusion partners. Residues count along the entry.
UniProt Q9Y4W6, residues 67-797: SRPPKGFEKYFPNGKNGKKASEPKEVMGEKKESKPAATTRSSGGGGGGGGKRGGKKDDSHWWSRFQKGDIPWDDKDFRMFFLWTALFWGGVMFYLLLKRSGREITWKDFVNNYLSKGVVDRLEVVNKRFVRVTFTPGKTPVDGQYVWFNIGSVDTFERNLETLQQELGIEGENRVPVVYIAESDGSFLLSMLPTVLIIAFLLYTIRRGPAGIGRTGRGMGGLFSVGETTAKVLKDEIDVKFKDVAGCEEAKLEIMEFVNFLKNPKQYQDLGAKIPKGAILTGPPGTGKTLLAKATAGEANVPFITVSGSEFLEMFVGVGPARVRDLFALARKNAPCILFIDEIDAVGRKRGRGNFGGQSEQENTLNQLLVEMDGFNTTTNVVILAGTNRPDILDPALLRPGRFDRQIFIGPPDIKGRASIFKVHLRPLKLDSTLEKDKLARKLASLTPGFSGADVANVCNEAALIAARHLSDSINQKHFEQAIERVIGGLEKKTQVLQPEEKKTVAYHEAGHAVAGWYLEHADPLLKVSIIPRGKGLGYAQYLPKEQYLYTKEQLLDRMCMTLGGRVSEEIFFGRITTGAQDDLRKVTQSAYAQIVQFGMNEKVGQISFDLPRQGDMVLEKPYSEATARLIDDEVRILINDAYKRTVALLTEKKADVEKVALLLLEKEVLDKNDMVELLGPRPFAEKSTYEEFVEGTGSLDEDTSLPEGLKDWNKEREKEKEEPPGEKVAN
UniProt O76031, residues 57-633: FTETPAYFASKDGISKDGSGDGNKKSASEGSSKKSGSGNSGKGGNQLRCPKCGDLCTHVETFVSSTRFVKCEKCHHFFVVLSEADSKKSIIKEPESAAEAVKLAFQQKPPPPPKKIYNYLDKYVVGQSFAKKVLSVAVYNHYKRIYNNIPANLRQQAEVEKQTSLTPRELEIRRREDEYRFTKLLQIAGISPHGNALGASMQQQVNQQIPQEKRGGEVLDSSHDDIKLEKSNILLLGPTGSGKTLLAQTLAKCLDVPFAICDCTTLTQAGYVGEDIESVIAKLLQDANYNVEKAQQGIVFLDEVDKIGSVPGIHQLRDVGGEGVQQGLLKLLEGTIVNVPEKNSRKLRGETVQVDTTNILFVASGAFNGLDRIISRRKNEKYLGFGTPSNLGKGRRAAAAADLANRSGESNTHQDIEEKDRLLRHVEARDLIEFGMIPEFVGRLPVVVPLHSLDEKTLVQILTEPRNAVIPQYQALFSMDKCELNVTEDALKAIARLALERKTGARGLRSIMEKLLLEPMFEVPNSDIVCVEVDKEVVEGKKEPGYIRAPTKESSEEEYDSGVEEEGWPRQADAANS

T1: LONP1 (human) (UniProt P36776)
T1 sequence: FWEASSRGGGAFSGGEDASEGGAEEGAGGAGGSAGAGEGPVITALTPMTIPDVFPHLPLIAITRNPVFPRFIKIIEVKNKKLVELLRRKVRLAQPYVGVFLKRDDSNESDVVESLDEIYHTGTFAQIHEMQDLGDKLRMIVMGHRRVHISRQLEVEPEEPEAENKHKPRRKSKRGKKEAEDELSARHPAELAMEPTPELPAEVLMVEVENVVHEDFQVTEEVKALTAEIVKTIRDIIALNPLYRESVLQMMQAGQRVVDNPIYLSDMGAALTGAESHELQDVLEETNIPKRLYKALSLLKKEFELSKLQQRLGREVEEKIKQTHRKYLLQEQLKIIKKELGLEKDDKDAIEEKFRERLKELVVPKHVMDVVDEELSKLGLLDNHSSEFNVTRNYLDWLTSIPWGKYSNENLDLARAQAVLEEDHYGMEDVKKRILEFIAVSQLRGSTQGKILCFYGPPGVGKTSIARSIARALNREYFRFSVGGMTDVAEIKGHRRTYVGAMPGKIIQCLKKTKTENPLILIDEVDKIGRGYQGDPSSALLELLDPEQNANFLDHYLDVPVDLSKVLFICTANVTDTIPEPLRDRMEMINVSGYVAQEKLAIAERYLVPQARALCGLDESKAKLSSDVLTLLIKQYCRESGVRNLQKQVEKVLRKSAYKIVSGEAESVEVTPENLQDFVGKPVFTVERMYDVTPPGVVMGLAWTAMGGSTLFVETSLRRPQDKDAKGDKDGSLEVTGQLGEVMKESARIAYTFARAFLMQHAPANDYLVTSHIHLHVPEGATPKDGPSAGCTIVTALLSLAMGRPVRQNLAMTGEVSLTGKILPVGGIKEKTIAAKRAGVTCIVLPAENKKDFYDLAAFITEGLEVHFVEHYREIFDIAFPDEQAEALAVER

T2: PMPCB, the beta subunit of the MPP (MPPβ) (human (endogenous in fibroblasts)) (UniProt O75439)
T2 sequence: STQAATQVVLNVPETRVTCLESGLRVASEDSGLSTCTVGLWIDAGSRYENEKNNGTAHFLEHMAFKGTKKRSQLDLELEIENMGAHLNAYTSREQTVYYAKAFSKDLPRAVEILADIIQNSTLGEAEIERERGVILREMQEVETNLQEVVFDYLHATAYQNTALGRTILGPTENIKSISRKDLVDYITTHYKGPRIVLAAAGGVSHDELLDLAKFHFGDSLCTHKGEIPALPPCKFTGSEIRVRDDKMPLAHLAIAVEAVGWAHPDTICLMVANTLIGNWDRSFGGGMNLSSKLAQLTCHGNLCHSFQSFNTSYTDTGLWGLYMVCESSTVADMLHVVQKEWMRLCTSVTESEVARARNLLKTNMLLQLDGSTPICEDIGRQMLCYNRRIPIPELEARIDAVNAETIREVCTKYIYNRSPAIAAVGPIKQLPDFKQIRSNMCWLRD

B1: LONP1 (enzyme, UniProt P36776 68-959)
chain: FWEASSRGGGAFSGGEDASEGGAEEGAGGAGGSAGAGEGPVITALTPMTIPDVFPHLPLIAITRNPVFPRFIKIIEVKNKKLVELLRRKVRLAQPYVGVFLKRDDSNESDVVESLDEIYHTGTFAQIHEMQDLGDKLRMIVMGHRRVHISRQLEVEPEEPEAENKHKPRRKSKRGKKEAEDELSARHPAELAMEPTPELPAEVLMVEVENVVHEDFQVTEEVKALTAEIVKTIRDIIALNPLYRESVLQMMQAGQRVVDNPIYLSDMGAALTGAESHELQDVLEETNIPKRLYKALSLLKKEFELSKLQQRLGREVEEKIKQTHRKYLLQEQLKIIKKELGLEKDDKDAIEEKFRERLKELVVPKHVMDVVDEELSKLGLLDNHSSEFNVTRNYLDWLTSIPWGKYSNENLDLARAQAVLEEDHYGMEDVKKRILEFIAVSQLRGSTQGKILCFYGPPGVGKTSIARSIARALNREYFRFSVGGMTDVAEIKGHRRTYVGAMPGKIIQCLKKTKTENPLILIDEVDKIGRGYQGDPSSALLELLDPEQNANFLDHYLDVPVDLSKVLFICTANVTDTIPEPLRDRMEMINVSGYVAQEKLAIAERYLVPQARALCGLDESKAKLSSDVLTLLIKQYCRESGVRNLQKQVEKVLRKSAYKIVSGEAESVEVTPENLQDFVGKPVFTVERMYDVTPPGVVMGLAWTAMGGSTLFVETSLRRPQDKDAKGDKDGSLEVTGQLGEVMKESARIAYTFARAFLMQHAPANDYLVTSHIHLHVPEGATPKDGPSAGCTIVTALLSLAMGRPVRQNLAMTGEVSLTGKILPVGGIKEKTIAAKRAGVTCIVLPAENKKDFYDLAAFITEGLEVHFVEHYREIFDIAFPDEQAEALAVER
B2: HTRA2 (enzyme, UniProt O43464 134-458)
chain: AVPSPPPASPRSQYNFIADVVEKTAPAVVYIEILDRHPFLGREVPISNGSGFVVAADGLIVTNAHVVADRRRVRVRLLSGDTYEAVVTAVDPVADIATLRIQTKEPLPTLPLGRSADVRQGEFVVAMGSPFALQNTITSGIVSSAQRPARDLGLPQTNVEYIQTDAAIDFGNSGGPLVNLDGEVIGVNTMKVTAGISFAIPSDRLREFLHRGEKKNSSSGISGSQRRYIGVMMLTLSPSILAELQLREPSFPDVQHGVLIHKVILGSPAHRAGLRPGDVILAIGEQMVQNAEDVYEAVRTQSQLAVQIRRGRETLTLYVTPEVTE
B3: SSBP1 (protein, UniProt Q04837 17-148)
chain: ESETTTSLVLERSLNRVHLLGRVGQDPVLRQVEGKNPVTIFSLATNEMWRSGDSEVYQLGDVSQKTTWHRISVFRPGLRDVAYQYVKKGSRIYLEGKIDYGEYMDKNNVRRQATTIIADNIIFLSDQTKEKE

Legend:
Assay in all cases: affinity purification with mass spectrometry
LONP1 (human) [1] = target: T1, LONP1 (human)
[2] = target: T2, PMPCB, the beta subunit of the MPP (MPPβ) (human (endogenous in fibroblasts))
LONP1 (human) [3] = target: T1, LONP1 (human); remark: listed apart in the source

| Molecule | binding (LONP1 (human) [1]) | binding (LONP1 (human) [3]) | also measured |
| --- | --- | --- | --- |
| AFG3L2 (from UniProt Q9Y4W6 67-797) (enzyme) | binds |  |  |
| CLPX (from UniProt O76031 57-633) | binds |  |  |
| B1 |  |  | binding [2]: binds |
| B2 |  | binds |  |
| B3 |  | binds |  |

Like-named read-outs stand apart in the source and are kept apart here. No constants are given. Whether binding was seen depends on the method and setting. Binding seen in cells or lysates may run through a third protein. Here binding means that the protein was enriched with, or labelled near, the bait; the list need not be complete.
